Test results as given in patent US7939546B2, “Quinoline derivatives for modulating DNA methylation” (SuperGen, Inc., priority 2007, dated 2011).
Structures can show the parent of a compound that is named as a salt. Some of these results come from one statement about several compounds together.

test system: CMV-EE210 cell line containing the epigenetically silenced GFP transgene; test: Cell-based GFP assay for demethylating activity (reactivation of silenced GFP transgene)
Protocol: The demethylating activity of non-bis-quaternary 4-anilinoquinolines were tested in a cell-based GFP (green fluorescent protein) assay. This assay has a GFP gene regulated by the CMV promoter and is sensitive to the methylation of CpG sites within the promoter. A decrease in methylation resulting from exposure to a methylation inhibitor leads to GFP expression and is readily scored. Specifically, the CMV-EE210 cell line containing the epigenetically silenced GFP transgene was used to assay for reactivation of GFP expression by flow cytometry. CMV-EE210 was made by transfecting NIH 3T3 cells with the pTR-UF/UF1/UF2 plasmid (Zolotuhin et al., 1996), which is comprised of pBS(+) (Stratagene, Inc.) containing a cytomegalovirus (CMV) promoter driving a humanized GFP gene adapted for expression in mammalian cells. After transfection, high-level GFP expressing cells were initially selected by FACS analysis and sorting using a MoFlo cytometer (Cytomation, Inc.). […] To screen for reactivation of CMV-EE210, decitabine (at […]) or a test compound (at a concentration of 30-50 μM) was added to complete medium (phenol red free DMEM (Gibco, Life Technologies) supplemented with 10% fetal bovine serum (Hyclone)). Cells were then seeded to 30% confluence (˜5000 cell/well) in 96 well plate containing the test compounds and grown for three days in at 37° C. in 5% CO2. The plates were examined under a fluorescent microscope using a 450-490 excitation filter (13 filter cube, Leica, Deerfield Ill.). Wells were scored g1 positive if 10% of viable cells express GFP, g2 positive if 30% of viable cells express GFP and g3 if greater than 75% of the viable cells express GFP. GFP IC 50 is the concentration of an inhibitor that (like an IC50) is the dose at which the GFP expression level goes from g3 to g1/2.

Which “reactivated transcription of the GFP gene, level” value (“reactivated transcription” below) does the source give for `Cc1cc(Nc2ccc(NC(=O)c3ccc(Nc4ccnc5cc(N(C)C)ccc45)cc3)cc2)nc(N)n1` [Cpd. BB, N-[4-(2-amino-6-methylpyrimidin-4-ylamino)phenyl]-4-(7-(dimethylamino)quinolin-4-ylamino)benzamide hydrochloride] here?
Its value is “greater than 75%”.

Which “reactivated transcription” value does the source give for `CN(C)c1ccc2c(Nc3ccc(NC(=O)c4cccc(Nc5cc[n+](C)cc5)c4)cc3)ccnc2c1` [Cpd. CC, 7-(dimethylamino)-4-[4-({3-[(1-methyl-4-pyridiniumyl)amino]benzoyl}amino)aniline]quinolinium dichloride] here?
The value was “greater than 75%”.

Which “reactivated transcription” value does the source give for `CN(C)c1ccc2nccc(Nc3ccc(C(=O)Nc4ccc(Nc5cc[n+](C)cc5)cc4)cc3)c2c1` [Cpd. O, 4-[4-({4-[(6-dimethylammonio-4-quinolinyl)amino]benzoyl}amino)-anilino]-1-methylpyridinium dichloride] here?
The value was “greater than 75%”.

For `CN(C)c1ccc2nccc(Nc3ccc(C(=O)Nc4cccc(Nc5cc[n+](C)cc5)c4)cc3)c2c1` [Cpd. Q, 6-(dimethylamino)-4-[4-({3-[(1-methyl-4-pyridiniumyl)amino]anilino}carbonyl)anilino]quinolinium dichloride], which “reactivated transcription” value is on record?
Its value is “greater than 75%”.

How did the “reactivated transcription” value turn out when `CN(C)c1ccc2c(Nc3ccc(C(=O)Nc4cccc(Nc5cc[n+](C)cc5)c4)cc3)ccnc2c1.Cl.[Cl-]` [Cpd. Z, 7-(dimethylamino)-4-[4-({3-[(1-methyl-4-pyridiniumyl)amino]anilino}carbonyl)anilino]quinolinium dichloride] was run?
Its value is “greater than 75%”.
